# PubChem BioAssay AID493199 (National Center for Advancing Translational Sciences (NCATS), 2011)
# Protein sequences, listed by entry. Tags and fused reporters are not part of them. Lines headed by an entry give the natural chain unless they say otherwise; changes in a name come on top.
# UniProt Q9NR56: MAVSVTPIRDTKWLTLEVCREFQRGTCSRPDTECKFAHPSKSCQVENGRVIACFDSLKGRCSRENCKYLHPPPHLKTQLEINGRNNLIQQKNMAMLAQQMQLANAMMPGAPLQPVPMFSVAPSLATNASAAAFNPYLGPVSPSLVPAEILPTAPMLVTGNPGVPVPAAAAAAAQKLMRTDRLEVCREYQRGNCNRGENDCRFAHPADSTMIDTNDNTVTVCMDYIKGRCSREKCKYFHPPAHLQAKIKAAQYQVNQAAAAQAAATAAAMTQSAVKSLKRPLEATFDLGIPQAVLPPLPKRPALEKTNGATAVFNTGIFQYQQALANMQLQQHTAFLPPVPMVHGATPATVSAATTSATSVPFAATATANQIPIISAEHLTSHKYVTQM
# The inconclusive results got no clear call from the source; some entries with a clear call stand among them for comparison. Potencies of inconclusive entries are doubtful fits and often do not repeat. The source made the active and inactive calls. Calls come from the whole dose curve; as a rule, active = well fitted inhibition curve with a large enough effect; inconclusive = small, poorly fitted or top-dose-only effect, or effect the other way; inactive = no such curve, though single readings can be large or run the other way.
# Molecular target: Muscleblind-like protein 1 (Homo sapiens) (UniProt Q9NR56)
# Experiment: qHTS Assay for Inhibitors of MBNL1-poly(CUG) RNA binding: Initial hit validation from the primary screen
# Conditions: TR-FRET MBNL1-His / biotin-(CUG)12 binding, 60 min; series mostly up to 57.6 µM; activity change, negative = inhibition: at the top concentration
# Method in brief: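 Compounds run up to 58 uM against the MBNL1-His/biotin-(CUG)12 complex. After 60 min at room temperature with Tb-anti-His (0.055 ng/ul) and SA-XL665 (5 nM), the 665/545 nm emission ratio (Ex 340 nm) is normalized to buffer and complex controls.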
Structure (SMILES),Potency,"activity change, negative = inhibition"
CCOC(=O)CCCCC(=O)c1[nH]c(=O)[nH]c1CSc1nc(C)cc(C)n1,active: 25.9 µM,
O=C(NC1CCCCC1)c1ccccc1NC(=O)C1CC(=O)N(c2ccc(Cl)cc2)C1 (configuration not stated),,inactive: 19.5%
CCCCC[C@H](O)/C=C/[C@@H]1[C@@H](C/C=C\CCCC(=O)OC)[C@@H](O)C[C@H]1O,"inconclusive: 20.6 µM [inhibitor, partial curve, poor fit]",
CCOc1ccc2[nH]c(=O)c(C(c3nnnn3Cc3ccco3)N3CCN(C)CC3)cc2c1 (configuration not stated),,inactive: -6.02%
N.N.N.N.N.N.N.N.N.N.N.N.N.N.O.O.[Cl-].[Cl-].[Cl-].[Cl-].[Cl-].[Cl-].[Ru].[Ru].[Ru],"inconclusive: 39.8 µM [activator, single point]",
CCn1c(SCC(=O)Nc2nc(C)c(C)s2)nnc1-c1cccs1,,inactive: -3.61%
COc1ccc(CC(=O)Oc2ccc(C)cc2Br)cc1OC,"inconclusive: 32.6 µM [inhibitor, single point]",
CC(=O)Nc1nc(-c2ccc(Cl)cc2)nc(C)c1C(C)=O,"inconclusive: 51.7 µM [inhibitor, partial curve, poor fit]",
CCOC(=O)/C(=N\Nc1ccccc1Cl)N1CC(C)OC(C)C1 (configuration not stated),,inactive: -4.24%
CC(=O)Nc1ccc(NC(=O)c2cc(-c3cc(C)c(C)cc3O)n[nH]2)cc1,"inconclusive: 41.1 µM [inhibitor, partial curve, poor fit]",
CCOC(=O)C1(CCOc2ccccc2)CCN(Cc2ccc(-n3cccn3)cc2)CC1,active: 6.51 µM,
COc1cc2c(C#N)c(N3CCCCC3)nc(N)c2c(N)n1,,inactive: 9.08%

# An excerpt of these results, as tab-separated lines:
Structure (SMILES)	Potency	activity change, negative = inhibition
O=C(NC1CCCCC1)c1ccccc1NC(=O)C1CC(=O)N(c2ccc(Cl)cc2)C1 (configuration not stated)		inactive: 19.5%
CCCCC[C@H](O)/C=C/[C@@H]1[C@@H](C/C=C\CCCC(=O)OC)[C@@H](O)C[C@H]1O	inconclusive: 20.6 µM [inhibitor, partial curve, poor fit]	
